Measurements taken from publication PMC10163288.
The other results are listed elsewhere or left out.

B1: il2ra_site1_1z92_sap_18_mot_HHH_b1_00499_000000281_0001_1_17_H_._4428453eb85d3cbdb794fa6b82d21c19_0001_0001_0000300039_0000001_0_0001 (protein)
chain: SSSSDEEFEELRRIVEELRELLKERGDRKAEELVEFLLRSAERLKNPKHLEFAIQDAEARISSSS
B2: il2ra_site1_3nfp_normal_mot_HHH_b1_01231_af2_000000170_0001_1_16_H_._HHH_b2_07700_af2_0001_0000100001_0000001_0 (protein)
chain: SSSSDVREEVRRLLQEALRAAVEGDPEEARELAEEALELAEERNDPQLEKFARRVLRDIRGSSSS
B3: il2ra_site1_1z92_sap_8_mot_HHH_b1_00287_000000111_0001_42_57_H_._HHH_b1_06795_af2_0001_0000100011_0000001_1_0001_af2pred_0001_af2pred (protein)
chain: SSSSNHEVHKLFIEASRLLSKGNPEEAERLLEEALELAREEGDELAAKQIEHILEAIKKSSSSSS
B4: il2ra_site2_3nfp_normal_mot_HHH_b1_01086_af2_000000264_0001_39_53_H_._HHH_b2_00528_0001_0000100004_0000001_0_af2pred_0001_af2pred (protein)
chain: SSSSSDEEVRRLLEEAERALEEGDPELVRFLLLLALEAALQLRDEELEREVRHVAKELNRSSSSS
B5: il2ra_site1_2b5i_sap_10_mot_HHH_b1_00432_000000039_0001_1_18_H_._HHH_b1_03544_af2_0001_0000500028_0000001_0_0001 (protein)
chain: SSSDYEELTRAAVRIVWKLRWKFGLSAEQARELNRLAAELADEGVSPEEIEEELEKLAHELSSSS
B6: il2ra_site1_2b5i_normal_mot_HHH_b2_01648_000000060_0001_42_56_H_._HHH_b1_05011_0001_0000300022_0000001_0_af2pred_dldesign_0_af2pred (protein)
chain: SSSSSKFVDRVVAQAREEFEELLAEGDEEALKKLLEQLEELERLTKDPKVRAELERLKALLSSSS
B7: il2ra_site1_1z92_sap_10_mot_HHH_b2_07834_af2_000000183_0001_23_39_H_._HHH_b2_03932_0001_0000300026_0000001_0_0001_af2pred_0001_af2pred_swapped (protein)
chain: SLTEEDLREAVEKNDEEELRKFIELLLRDAGDPKYVKRLLKILVKRLGLPPEVLERLEELLEELT
B8: il2ra_site2_2erj_normal_mot_HHH_b1_03609_af2_000000077_0001_42_55_H_._HHH_b1_03248_0001_0000600011_0000001_0 (protein)
chain: SSSSSSEEEERVEELLEEAKEIPDPKEREEVLREASEIAFRLGDFRLWALVSEVFRELNQSSSSS
B9: il2ra_site2_2erj_sap_20_mot_HHH_b2_07568_000000046_0001_18_34_H_._HHH_b2_02074_0001_0000200022_0000001_0_0001 (protein)
chain: SSSSTDNVRASLEAAEEALERGSPEVARAYLELLLRDLKRSGDEEAIEEVQKILEEVERRSSSSS
B10: il2ra_site1_1z92_sap_10_mot_HHH_b1_02362_af2_000000131_0001_1_17_H_._HHH_b2_01219_0001_0000200021_0000001_0_0001_af2pred_0001_af2pred_1 (protein)
chain: EDHEAFQRDVEQLAKFAGVPSFEVEVRNNTVEVTLNGDDEAARNAQKALERLAKEAGIEVHVEVE
B11: il2ra_site2_2erj_sap_18_mot_HHH_b2_02734_000000067_0001_42_55_H_._HHH_b2_06464_af2_0001_0000300019_0000001_0_0001 (protein)
chain: SSSSDEFHRLYELAEEVIELLSRGNKEEAEKLLEELEEIARKLQSDNVHEIVENLERHLNSSSSS
B12: il2ra_site1_3nfp_normal_mot_HHH_b1_07078_000000231_0001_39_52_H_._ems_3hC_793_0001_0001_0000300013_0000001_0 (protein)
chain: SSDEELYKELNKLAWEAMRRADREALREVTEEAEELARKHNDPALKRLAEYIERLLEEAEKSSSS
B13: il2ra_site2_3nfp_sap_26_mot_7cf5847eaa050a71bc877a27954f5424_0001_1_af2_000000114_0001_17_30_H_._f45a65fa70d066dfb2bff9ecbb6071cf_0001_0001_0000600018_0000001_1 … (protein)
chain: SSSSSDEERLRELQEELRELLEEGDEEEAERVARELARLAFELGDEEAWAEALRILEELESSSSS
B14: il2ra_site1_1z92_normal_mot_HHH_b2_05172_af2_000000284_0001_1_18_H_._HHH_b2_08134_af2_0001_0000400053_0000001_0 (protein)
chain: SSSSDERSREQAEFVVRLAAEFGLDLEQIKILDEVARELEERGYSPEEIKEILEEVAEELGSSSS
B15: il2ra_site2_3nfp_normal_mot_HHH_b1_00660_af2_000000199_0001_40_57_H_._HHH_b1_02631_af2_0001_0000700034_0000001_0 (protein)
chain: SSSSDEEERVRELLEEIEELIKEGNPEEARELLREASNLAYELNNPELFAAVEELLYLLASSSSS
B16: il2ra_site1_2b5i_normal_mot_HHH_b1_06258_af2_000000112_0001_42_56_H_._HHH_b1_08392_0001_0000700060_0000001_1_af2pred_dldesign_0_af2pred (protein)
chain: SSSSSPEEEEAEDLFLEAVRLSRTDKEKAKELLEKALELAKKLGNEKLVAEIEYFLKRLESSSSS
B17: il2ra_site2_2erj_sap_19_mot_HHH_b1_00922_000000236_0001_39_57_H_._HHH_b2_03501_0001_0001400025_0000001_0_0001 (protein)
chain: SSSSDELHRAYELANEIMHALARGDEELFEELTEELQELIERLGSPSAEEILRALERHFNSSSSS
B18: il2ra_site1_3nfp_normal_mot_b9b1aa0f98829a21a591038753170461_0001_1_af2_000000119_0001_3_14_H_._HHH_b2_04628_af2_0001_0000200034_0000001_0_af2pred_0001_af2pred (protein)
chain: SSSSTEALEEARELTEEIRRLLKEGNKEEAEKLLRRLEELAEELNDPVLELLVRALQRLLNSSSS
B19: il2ra_site1_3nfp_sap_12_mot_HHH_b1_07180_af2_000000260_0001_1_19_H_._HHH_b2_06317_af2_0001_0000500010_0000001_0_0001_af2pred_0001_af2pred_1 (protein)
chain: SDEELIKKLVRIAVEQNSPRLLRKILRDFERYTGDPEEAERILEELIEEVLGDPEEARRLVEEAK
B20: il2ra_site1_2b5i_sap_12_mot_HHH_b2_04997_af2_000000138_0001_1_34_H_._HHH_b1_01670_0001_0000100005_0000001_0_0001_af2pred_0001_af2pred_1 (protein)
chain: SSSDIFERVLELYKEASKLLRNGNPEEAEEVVEEALRLAEEGNDENARKDLQNLLELIRRTSSSS
B21: il2ra_site1_3nfp_normal_mot_HHH_b2_03135_af2_000000097_0001_42_55_H_._ems_3hM_2462_af2_0001_0000100003_0000001_0_af2pred_0001_af2pred (protein)
chain: SSQEASELVEEVSKLLKEASRKDDKEIAEEAIELAEQLAKEVDDPVARELLERLIKAAEKIVEQS
B22: il2ra_site1_1z92_sap_9_mot_HHH_b1_03747_000000078_0001_21_38_H_._HHH_b2_03280_0001_0000500010_0000001_0_0001_af2pred_0001_af2pred_swapped (protein)
chain: SSSSSYERFKELAEKNIREAIEDGDEESARKDLEQLERYARRAKNPEVQKVVEELEELIDSSSSS
B23: il2ra_site2_3nfp_normal_mot_HHH_b2_07362_000000201_0001_1_15_H_._HHH_b2_05183_0002_0000700051_0000001_0 (protein)
chain: SSSSDREEVEELLEEAEELLKEGDPSEAFQVVMEASELAAKLDDPELAKAVFELYKLLLNSSSSS
B24: il2ra_site2_2erj_normal_mot_HHH_b1_07741_000000192_0001_1_20_H_._9b1ece5d1ebc94355a99c96473898622_0001_1_af2_0001_0000300001_0000001_0 (protein)
chain: DQEEFLRRAARENPETFIRYAELLAKDAGNPELLKLVEELKEEVEKGEIPPEEAAELVVEVLEEL
B25: il2ra_site2_3nfp_normal_mot_ems_p1-14H-GBL-14H-GABBL-15H_0148_0001_0001_0002_000000194_0001_18_31_H_._49469fcb01e68df237a8336044d9c6d5_0001_1_af2_0001_000020001 … (protein)
chain: PEAEAILFANEAGDPELYAALALLLQRLDKDPNDEEARELLEELIQLVRRGDPEELKELAKRIAK
B26: il2ra_site1_3nfp_normal_mot_HHH_b1_07180_af2_000000260_0001_1_19_H_._HHH_b2_04392_0001_0000100003_0000001_0_af2pred_0001_af2pred_swapped (protein)
chain: SSSSSEEAEEILEEARELIERLIEEGDFRRASEVAKEAQKLLRELGDHEALEELLRFAHEASSSS
B27: il2ra_site1_1z92_sap_13_mot_HHH_b1_07660_af2_000000114_0001_40_57_H_._HHH_b1_01257_0001_0000100006_0000001_0_0001 (protein)
chain: SSSSDRREKAFEWSEKLVEAALRLGNEELAEFAIRQLELLAEHTNDPELREIVKELKERLSSSSS
B28: il2ra_site2_3nfp_sap_16_mot_HHH_b2_04655_af2_000000128_0001_19_35_H_._HHH_b2_05884_0001_0000200009_0000001_0_0001 (protein)
chain: SSSSDKSEEYVRAALELAKRAEEEGDPEAAQRSLEIALLAAESAGNPELFREIEELLEELRSSSS
B29: il2ra_site2_3nfp_normal_mot_HHH_b1_03316_000000041_0001_39_56_H_._5f20bd37ef72b54d9d5808571b4331c8_0001_0001_0000400034_0000001_0_af2pred_0001_af2pred (protein)
chain: GPSQLIRELQKEDEELARLLFTLRLLVEELNDPRLKELLEEALELIEEGNPEEAEEVLREALRLP
B30: il2ra_site1_1z92_sap_19_mot_7891c0d1f2c7eedbb314a075540956e2_0001_1_af2_000000230_0001_54_65_H_._HHH_b1_04373_af2_0001_0000400030_0000001_1_0001 (protein)
chain: SSMEFAVEQLVRKFERSPEARESATRILSRLLGIPPEEVEELLKELVELYRKDPEKAAELLKKLA
B31: il2ra_site1_3nfp_normal_mot_HHH_b1_05396_000000293_0001_1_19_H_._HHH_b1_06882_0001_0000700048_0000001_1 (protein)
chain: SSSSDDEELNRLLEEILRLAFEGDEEEAQRLIEELEKLAEELNDEAIRKFLEDILRALELLSSSS
B32: il2ra_site2_3nfp_normal_mot_HHH_b1_00660_af2_000000090_0001_40_57_H_._HHH_b2_05870_0001_0000500009_0000001_0_af2pred_0001_af2pred (protein)
chain: SSSSSSDEVEELIRQAEELLEKGNPEEAKELLEKAALIAAELGDFELFARIAELLLKVDSSSSSS
B33: il2ra_site2_2erj_sap_22_mot_077498ac8ee2fbf61350c97112a77e25_0001_1_000000076_0001_36_49_H_._HHH_b1_00573_af2_0001_0000600015_0000001_0_0001 (protein)
chain: SSSSSDVEEELEKLIEEAEELKKENPEEAASVLIEAALLALENNDEEIFKKVSELFEELFSSSSS
B34: il2ra_site2_3nfp_normal_mot_HHH_b1_05627_af2_000000038_0001_43_56_H_._HHH_b2_01306_af2_0001_0000900014_0000001_1 (protein)
chain: SSSSDKREEYVKAALELAKLAAEQGNPEIAEKHLRLAELFAEAVNNEELEELVRKVAEELSSSSS
B35: il2ra_site1_1z92_normal_mot_HHH_b1_04604_af2_000000029_0001_42_56_H_._HHH_b2_04891_af2_0001_0000200006_0000001_0_af2pred_0001_af2pred (protein)
chain: SSSSSSNLVELLRELQRLLREGDEEEFEKLAEEVKELAKELNSRSVRRLVELYEEELNSSSSSSS
B36: il2ra_site1_1z92_sap_11_mot_1f8b761ca86cd746b2cfece001fd8b2b_0001_1_000000273_0001_33_46_H_._98c316dcd33a4a4659f1bb01e8c35f85_0001_0001_0000100019_0000001_0_000 … (protein)
chain: DDKEAIKEEIEALAEIVGVDSVEVEERNGRFHVTIEGNDNRAETAAKVVERMAEAFGIDVEVEVE
B37: il2ra_site2_2erj_normal_mot_HHH_b2_05866_000000027_0001_43_57_H_._HHH_b2_01310_0001_0000200015_0000001_0 (protein)
chain: SSSSSDHKEIWEEVAELLARLAEVSEEELEELLKEAKRLAEEVNDPILRRYVEFAERDVKSSSSS

biological target: il2ra, P01589; experiment: yeast display titration

Apparent Kd, inactive:
B1 no binding seen
B2 no binding seen
B3 no binding seen
B4 no binding seen
B5 no binding seen
B6 no binding seen
B7 no binding seen
B8 no binding seen
B9 no binding seen
B10 no binding seen
B11 no binding seen
B12 no binding seen
B13 no binding seen
B14 no binding seen
B15 no binding seen
B16 no binding seen
B17 no binding seen
B18 no binding seen
B19 no binding seen
B20 no binding seen
B21 no binding seen
B22 no binding seen
B23 no binding seen
B24 no binding seen
B25 no binding seen
B26 no binding seen
B27 no binding seen
B28 no binding seen
B29 no binding seen
B30 no binding seen
B31 no binding seen
B32 no binding seen
B33 no binding seen
B34 no binding seen
B35 no binding seen
B36 no binding seen
B37 no binding seen

Quoted at random: three entries already listed.
Apparent Kd, inactive:
B4 no binding seen
B8 no binding seen
B33 no binding seen
